Experimental data taken from US12558329B2 (New York University, priority 2021, dated 2026).
Entries after “also recorded” stand apart in the source; their conditions may differ.

Tested on: MIAPACA2 cells
Experiment: Pulse-chase study with tyrosine-derived intermediates after two weeks of 13C9-Tyr labelling
Assay type: cell-based, human
Settings: exogenous metabolite, cells labelled with 13C9-Tyr for two weeks
Protocol: Using the same experimental scheme, the incorporation of Tyr-derived metabolites into CoQ10 was measured. […] For metabolomics, briefly, cells were washed in 4° C. 0.9% saline and metabolites were extracted with 46% methanol:23% H2O:[…] chloroform that contained a labelled amino acid standard mix (MSK-A2-1.2, Cambridge Isotope Laboratories, Inc.). Enzymatic assay samples were extracted using 80% methanol: 20% H2O that contained labelled amino acid standards. Extracts were placed into 1.5 mL Eppendorf tubes, vortexed at 4° C. for 10 min and centrifuged at 4° C. for 10 min at 17,200×g in a microcentrifuge. The aqueous phase was transferred to vials for GC-MS or Eppendorf tubes for LC-MS. Polar samples were evaporated in a […] and samples were resolved by GC-MS or LC-MS. Lipid samples were dried using a stream of N2 (for ^18O labelling studies) or air. Metabolite and lipid extracts were submitted to the […] Metabolomics Core Resource Laboratory. For polar metabolomics, the LC column was a Millipore ZIC-pHILIC (2.1×150 […], 5 μm bead size) coupled to a Dionex […] 3000 system. The column oven temperature was held at 25° C. The flow rate was 100 μL/min, and the injection volume was 1 μL. […] Peak heights were analyzed using Xcalibur (ThermoFisher Scientific). […] Peak heights were analyzed using Xcalibur (ThermoFisher Scientific).

SMILES	intracellular accumulation (uptake) of the unlabelled metabolite
O=C(O)C(O)c1ccc(O)cc1 (racemic) [Metabolite 4-HMA, 2-hydroxy-2-(4-hydroxyphenyl)acetic acid]	readily taken up by cells; also recorded: substantial intracellular accumulation
O=C(O)c1ccc(O)cc1 [Metabolite 4-HB, 4-hydroxybenzoic acid]	substantial intracellular accumulation
